{"source": "the supplement of paper PMC7877785", "test": "self-splicing fitness, log relative to wild type (ln ratio); higher = more splicing; Tetrahymena group I intron in knt gene, E. coli kanamycin selection, DiMSum; sequences stand for … in CUCUCU…GGAGGGAAAAGUUAUCAGGCAUGCACCUGGUAGCUAGUCUUUAAACCAAUAGAUUGCAUCGGUUUAAAAGGCAAGACCGUCAAAUUGCGGGAAAGGGGUCAACAGCCGUUCAGUACCAAGUCUCAGGGGAAACUUUGAGAUGGCCUUGCAAAGGGUAUGGUAAUAAGCUGACGGACAUGGUCCUAACCACGCAGCCAAGUCCUAAGUCAACAGAUCUUCUGUUGAUAUGGAUGCAGUUCACAGACUAAAUGUCGGUCGGGGAAGAUGUAUUCUUCUCAUAAGAUAUAGUCGGACCUCUCCUUAAUGGGAGCUAGCGGAUGAAGUGAUGCAACACUGGAGCCGCUGGGAACUAAUUUGUAUGCGAAAGUAUAUUGAUUAGUUUUGGAGUACUCGUGGUCG", "outline": "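The eight P1ex-region nucleotides of an intron in the knt kanamycin-resistance gene on pET-22b(+) were all randomised and the library put into E. coli BL21(DE3). Six replicate transformations were grown overnight at 37°C or 30°C on LB agar with or without 25 μg/mL kanamycin, together with 100 μg/mL carbenicillin, 50 μM IPTG and 0.2% rhamnose. Colonies were pooled and amplicon-sequenced on an Illumina HiSeq 2500. Fitness from DiMSum is the error-weighted combination of wild-type-normalised replicate fold changes, kanamycin over none.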", "note": "± gives the uncertainty stated by the source. Many of these values have a large error."}
{"sequence": "GUCAAGCAAUAUUACGGAUG", "values": [{"measurement": "self-splicing fitness (ln)", "setting": "30 °C", "value": "-2.64 ± 0.12"}, {"measurement": "self-splicing fitness (ln)", "setting": "37 °C", "value": "-0.795 ± 0.11"}]}
{"sequence": "CCUAAGCAAUAUUACGCUAA", "values": [{"measurement": "self-splicing fitness (ln)", "setting": "30 °C", "value": "-4.22 ± 0.52"}]}
{"sequence": "UGACAGCAAUAUUACGGAUC", "values": [{"measurement": "self-splicing fitness (ln)", "setting": "30 °C", "value": "-4.78 ± 0.32"}, {"measurement": "self-splicing fitness (ln)", "setting": "37 °C", "value": "-2.21 ± 0.16"}]}
{"sequence": "GGAGAGCAAUAUUACGUAUG", "values": [{"measurement": "self-splicing fitness (ln)", "setting": "30 °C", "value": "-3.12 ± 0.76"}, {"measurement": "self-splicing fitness (ln)", "setting": "37 °C", "value": "-3.28 ± 0.52"}]}
{"sequence": "UCGUAGCAAUAUUACGAAGU", "values": [{"measurement": "self-splicing fitness (ln)", "setting": "30 °C", "value": "-3.58 ± 0.47"}, {"measurement": "self-splicing fitness (ln)", "setting": "37 °C", "value": "-3.06 ± 0.35"}]}
{"sequence": "CGCAAGCAAUAUUACGUGUU", "values": [{"measurement": "self-splicing fitness (ln)", "setting": "30 °C", "value": "-3.48 ± 0.11"}, {"measurement": "self-splicing fitness (ln)", "setting": "37 °C", "value": "-2.9 ± 0.14"}]}
{"sequence": "UCUGAGCAAUAUUACGGAGC", "values": [{"measurement": "self-splicing fitness (ln)", "setting": "30 °C", "value": "-2.77 ± 0.21"}, {"measurement": "self-splicing fitness (ln)", "setting": "37 °C", "value": "-2.92 ± 0.2"}]}
{"sequence": "CUCUAGCAAUAUUACGUUAC", "values": [{"measurement": "self-splicing fitness (ln)", "setting": "30 °C", "value": "-3.53 ± 0.52"}, {"measurement": "self-splicing fitness (ln)", "setting": "37 °C", "value": "-3.08 ± 1.1"}]}
{"sequence": "UGUUAGCAAUAUUACGAUCG", "values": [{"measurement": "self-splicing fitness (ln)", "setting": "30 °C", "value": "-0.427 ± 0.26"}, {"measurement": "self-splicing fitness (ln)", "setting": "37 °C", "value": "-0.0339 ± 0.28"}]}
{"sequence": "GUAUAGCAAUAUUACGCCUU", "values": [{"measurement": "self-splicing fitness (ln)", "setting": "30 °C", "value": "-2.11 ± 0.29"}, {"measurement": "self-splicing fitness (ln)", "setting": "37 °C", "value": "-0.499 ± 0.24"}]}
{"sequence": "GACGAGCAAUAUUACGCCCC", "values": [{"measurement": "self-splicing fitness (ln)", "setting": "30 °C", "value": "-2.42 ± 1.2"}, {"measurement": "self-splicing fitness (ln)", "setting": "37 °C", "value": "-1.79 ± 0.82"}]}
{"sequence": "UCGGAGCAAUAUUACGAGAG", "values": [{"measurement": "self-splicing fitness (ln)", "setting": "37 °C", "value": "-1.19 ± 0.73"}]}
{"sequence": "CUCCAGCAAUAUUACGCGCA", "values": [{"measurement": "self-splicing fitness (ln)", "setting": "30 °C", "value": "-3.34 ± 0.31"}, {"measurement": "self-splicing fitness (ln)", "setting": "37 °C", "value": "-2.56 ± 0.49"}]}
{"sequence": "GGAGAGCAAUAUUACGAGGG", "values": [{"measurement": "self-splicing fitness (ln)", "setting": "37 °C", "value": "-2.72 ± 1.1"}]}
{"sequence": "CUUAAGCAAUAUUACGACCC", "values": [{"measurement": "self-splicing fitness (ln)", "setting": "30 °C", "value": "-2.36 ± 1.2"}, {"measurement": "self-splicing fitness (ln)", "setting": "37 °C", "value": "-1.13 ± 1.2"}]}
{"sequence": "CCUUAGCAAUAUUACGAGUC", "values": [{"measurement": "self-splicing fitness (ln)", "setting": "30 °C", "value": "-3.9 ± 1"}]}
{"sequence": "CGCUAGCAAUAUUACGUUAC", "values": [{"measurement": "self-splicing fitness (ln)", "setting": "37 °C", "value": "-3.2 ± 0.6"}]}
{"sequence": "GGGGAGCAAUAUUACGAUAA", "values": [{"measurement": "self-splicing fitness (ln)", "setting": "30 °C", "value": "-2.8 ± 0.58"}, {"measurement": "self-splicing fitness (ln)", "setting": "37 °C", "value": "-2.41 ± 0.56"}]}
{"sequence": "UCGGAGCAAUAUUACGUUUU", "values": [{"measurement": "self-splicing fitness (ln)", "setting": "37 °C", "value": "-3.18 ± 0.53"}]}
{"sequence": "AGCGAGCAAUAUUACGACAG", "values": [{"measurement": "self-splicing fitness (ln)", "setting": "30 °C", "value": "-1.98 ± 0.56"}]}
{"sequence": "GCCUAGCAAUAUUACGCCCG", "values": [{"measurement": "self-splicing fitness (ln)", "setting": "30 °C", "value": "-1.96 ± 1.2"}, {"measurement": "self-splicing fitness (ln)", "setting": "37 °C", "value": "-1.51 ± 0.88"}]}
{"sequence": "CUAGAGCAAUAUUACGUAUA", "values": [{"measurement": "self-splicing fitness (ln)", "setting": "37 °C", "value": "-2.5 ± 0.53"}]}
{"sequence": "CUUAAGCAAUAUUACGUUGA", "values": [{"measurement": "self-splicing fitness (ln)", "setting": "30 °C", "value": "-2.93 ± 0.63"}]}
{"sequence": "UCACAGCAAUAUUACGAAUC", "values": [{"measurement": "self-splicing fitness (ln)", "setting": "30 °C", "value": "-3.53 ± 0.6"}]}
{"sequence": "AUCAAGCAAUAUUACGGCCC", "values": [{"measurement": "self-splicing fitness (ln)", "setting": "37 °C", "value": "-0.732 ± 0.71"}]}
{"sequence": "CCUAAGCAAUAUUACGACCC", "values": [{"measurement": "self-splicing fitness (ln)", "setting": "30 °C", "value": "-4.2 ± 0.59"}, {"measurement": "self-splicing fitness (ln)", "setting": "37 °C", "value": "-0.457 ± 0.56"}]}
{"sequence": "GUUUAGCAAUAUUACGCGCU", "values": [{"measurement": "self-splicing fitness (ln)", "setting": "30 °C", "value": "-1.52 ± 0.29"}, {"measurement": "self-splicing fitness (ln)", "setting": "37 °C", "value": "-0.397 ± 0.44"}]}
{"sequence": "UCCUAGCAAUAUUACGAACC", "values": [{"measurement": "self-splicing fitness (ln)", "setting": "30 °C", "value": "-3.29 ± 0.5"}, {"measurement": "self-splicing fitness (ln)", "setting": "37 °C", "value": "-1.96 ± 0.67"}]}
{"sequence": "CGUGAGCAAUAUUACGGCAC", "values": [{"measurement": "self-splicing fitness (ln)", "setting": "30 °C", "value": "-3.19 ± 1.2"}, {"measurement": "self-splicing fitness (ln)", "setting": "37 °C", "value": "-2.39 ± 1.1"}]}
{"sequence": "CUUAAGCAAUAUUACGAGCC", "values": [{"measurement": "self-splicing fitness (ln)", "setting": "30 °C", "value": "-4.96 ± 0.72"}]}
{"sequence": "CGAGAGCAAUAUUACGAGGA", "values": [{"measurement": "self-splicing fitness (ln)", "setting": "30 °C", "value": "-0.868 ± 1.4"}]}
{"sequence": "CUCCAGCAAUAUUACGCGCC", "values": [{"measurement": "self-splicing fitness (ln)", "setting": "30 °C", "value": "-2.7 ± 0.29"}, {"measurement": "self-splicing fitness (ln)", "setting": "37 °C", "value": "-2.05 ± 0.38"}]}
{"sequence": "AACGAGCAAUAUUACGAGAC", "values": [{"measurement": "self-splicing fitness (ln)", "setting": "37 °C", "value": "-0.98 ± 0.77"}]}
{"sequence": "ACAGAGCAAUAUUACGAGAC", "values": [{"measurement": "self-splicing fitness (ln)", "setting": "30 °C", "value": "-3.23 ± 0.37"}, {"measurement": "self-splicing fitness (ln)", "setting": "37 °C", "value": "-2.67 ± 0.31"}]}
{"sequence": "CUCUAGCAAUAUUACGAUAC", "values": [{"measurement": "self-splicing fitness (ln)", "setting": "30 °C", "value": "-3.73 ± 0.59"}, {"measurement": "self-splicing fitness (ln)", "setting": "37 °C", "value": "-2.12 ± 0.51"}]}
{"sequence": "UAGCAGCAAUAUUACGAUCA", "values": [{"measurement": "self-splicing fitness (ln)", "setting": "30 °C", "value": "0.112 ± 0.088"}, {"measurement": "self-splicing fitness (ln)", "setting": "37 °C", "value": "0.169 ± 0.099"}]}
{"sequence": "CGCGAGCAAUAUUACGAUUC", "values": [{"measurement": "self-splicing fitness (ln)", "setting": "30 °C", "value": "-2.62 ± 1.1"}, {"measurement": "self-splicing fitness (ln)", "setting": "37 °C", "value": "-1.95 ± 0.81"}]}
{"sequence": "GUGGAGCAAUAUUACGUGGC", "values": [{"measurement": "self-splicing fitness (ln)", "setting": "30 °C", "value": "-3.46 ± 0.75"}, {"measurement": "self-splicing fitness (ln)", "setting": "37 °C", "value": "-3.21 ± 0.74"}]}
{"sequence": "UAGGAGCAAUAUUACGUUGG", "values": [{"measurement": "self-splicing fitness (ln)", "setting": "30 °C", "value": "-4.42 ± 0.72"}]}
{"sequence": "UAUGAGCAAUAUUACGGAAC", "values": [{"measurement": "self-splicing fitness (ln)", "setting": "30 °C", "value": "-2.87 ± 1.1"}, {"measurement": "self-splicing fitness (ln)", "setting": "37 °C", "value": "-2.69 ± 0.62"}]}
{"sequence": "AUAGAGCAAUAUUACGAGUC", "values": [{"measurement": "self-splicing fitness (ln)", "setting": "37 °C", "value": "-2.73 ± 0.79"}]}
{"sequence": "UAUGAGCAAUAUUACGCUCC", "values": [{"measurement": "self-splicing fitness (ln)", "setting": "37 °C", "value": "-3.24 ± 0.74"}]}
{"sequence": "CUACAGCAAUAUUACGAAUC", "values": [{"measurement": "self-splicing fitness (ln)", "setting": "30 °C", "value": "-4.32 ± 0.23"}, {"measurement": "self-splicing fitness (ln)", "setting": "37 °C", "value": "-2.61 ± 0.23"}]}
